No constants are given. Whether binding was seen depends on the method and setting. Some results given as binding are weak or reduced against the parent protein; the word gives no strength.
Legend:
[1] = molecular target: NOTCH1 (construct used in the assay not stated) (human) (UniProt P46531); test: Western blot of NOTCH1 fragment Fc fusions, non-reducing SDS-PAGE
[2] = molecular target: NOTCH1 EGF 4-5 Fc fusion protein (human) (UniProt P46531); test: Western blot, SDS-PAGE of Fc fusion proteins
[3] = molecular target: NOTCH1 EGF 1-4 Fc fusion protein (human) (UniProt P46531); test: Western blot, SDS-PAGE of Fc fusion proteins

Amino acid sequences for entries named in this document (tags omitted). Residues count along the entry.
NOTCH1 (construct used in the assay not stated) (P46531, residues 19-220): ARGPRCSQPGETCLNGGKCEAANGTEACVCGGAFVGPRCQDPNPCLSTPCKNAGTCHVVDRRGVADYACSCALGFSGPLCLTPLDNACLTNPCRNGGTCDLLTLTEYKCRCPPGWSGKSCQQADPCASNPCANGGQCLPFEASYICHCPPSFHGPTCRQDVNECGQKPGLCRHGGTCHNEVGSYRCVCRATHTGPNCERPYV
NOTCH1 EGF 1-4 Fc fusion protein (P46531, residues 19-176): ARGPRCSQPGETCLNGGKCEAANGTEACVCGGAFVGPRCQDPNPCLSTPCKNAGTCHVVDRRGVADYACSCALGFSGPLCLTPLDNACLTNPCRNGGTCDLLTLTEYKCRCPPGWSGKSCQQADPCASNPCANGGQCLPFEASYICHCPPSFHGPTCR
NOTCH1 EGF 4-5 Fc fusion protein (P46531, residues 140-220): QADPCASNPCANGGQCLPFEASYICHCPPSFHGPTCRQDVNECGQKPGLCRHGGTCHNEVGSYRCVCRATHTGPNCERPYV

Measured: binding

B1: anti-NOTCH1 monoclonal antibody 13M57 (antibody, mouse IgG1, kappa, V domains shown)
VH: EVNLVESGGDLVQPGGSLRLSCAASGFTFSSYTMSWVRQTPEKRLEWVAYIDYGGDFTSYSDAIRGRFTISRDNAKNTLYLQMSSLKSEDTAIYYCSRRRYDAMDYWGQGTSVIVSS
VL: DIQMTQSTSSLSASLGDRVTVSCSASQAISNYLNWYQQKPDGTLKLLIYYTTNLHSGVPSRFSGSGSGTDYSLTISNLEPEDIATYYCQQYSKFPWTFGGGTKLEIKR
notes: Murine hybridoma antibody raised against NOTCH1 EGF repeats 1-5; Conjugated to Alexa Fluor 647 for some FACS work; also called 13M30
binds: all assays above

— US20080131434A1 (ONCOMED PHARMACEUTICALS, published 2008)
